# From the supplement of paper PMC8728848
# This is one part of the list.
# B1: M6PR (Bos taurus), P11456 (protein)
# chain: MMSPLHSSWRTGLLLLLLFSVAVRESWQTEEKTCDLVGEKGKESEKELALLKRLTPLFNKSFESTVGQSPDMYSYVFRVCREAGNHSSGAGLVQINKSNGKETVVGRFNETQIFNGSNWIMLIYKGGDEYDNHCGREQRRAVVMISCNRHTLADNFN
# Assays:
# Experiment in all cases: glycan array binding signal (z-score within array); higher = stronger binding
# Conditions in all cases: glycan notation: IUPAC condensed, linker removed
# [1] = target: Man(a1-3)[Man(a1-6)]Man(b1-4)GlcNAc(b1-4)GlcNAc
# How it was run: (§1)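 Columns mapping to the same glycan were averaged after glycan names were converted to IUPAC-condensed notation. The data come from 3228 arrays in the Consortium for Functional Glycomics database, limited to those with an available protein sequence. Binding is reported as a within-array Z-score averaged across arrays of one protein sequence and across linkers.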
# Man(b1-4)GlcNAc = target: Man(b1-4)GlcNAc
# How it was run: as §1
# Neu5Ac(a2-3)Gal = target: Neu5Ac(a2-3)Gal
# How it was run: as §1
# [2] = target: Neu5Ac(a2-3)Gal(b1-3)GalNAc
# How it was run: as §1
# [3] = target: Neu5Ac(a2-3)Gal(b1-3)GalNAc(b1-3)Gal(a1-4)Gal(b1-4)Glc
# How it was run: as §1
# [4] = target: Neu5Ac(a2-3)Gal(b1-3)GalNAc(b1-3)Gal(b1-4)GlcNAc
# How it was run: as §1
# [5] = target: Neu5Ac(a2-3)Gal(b1-3)GalNAc(b1-4)[Neu5Ac(a2-3)]Gal(b1-4)Glc
# How it was run: as §1
# [6] = target: Neu5Ac(a2-3)Gal(b1-3)GalNAc6S
# How it was run: as §1
# [7] = target: Neu5Ac(a2-3)Gal(b1-3)GlcNAc
# How it was run: as §1
# [8] = target: Neu5Ac(a2-3)Gal(b1-3)GlcNAc(b1-3)Gal(b1-3)GlcNAc
# How it was run: as §1
# [9] = target: Neu5Ac(a2-3)Gal(b1-3)GlcNAc6S
# How it was run: as §1
# [10] = target: Neu5Ac(a2-3)Gal(b1-3)[Fuc(a1-4)]GlcNAc
# How it was run: as §1
# [11] = target: Neu5Ac(a2-3)Gal(b1-3)[Fuc(a1-4)]GlcNAc(b1-3)Gal(b1-4)[Fuc(a1-3)]GlcNAc
# How it was run: as §1
# [12] = target: Neu5Ac(a2-3)Gal(b1-3)[Neu5Ac(a2-3)Gal(b1-4)]GlcNAc
# How it was run: as §1
# [13] = target: Neu5Ac(a2-3)Gal(b1-3)[Neu5Ac(a2-6)]GalNAc
# How it was run: as §1
# Neu5Ac(a2-3)Gal(b1-4)Glc = target: Neu5Ac(a2-3)Gal(b1-4)Glc
# How it was run: as §1
# [14] = target: Neu5Ac(a2-3)Gal(b1-4)GlcNAc
# How it was run: as §1
# [15] = target: Neu5Ac(a2-3)Gal(b1-4)GlcNAc(b1-3)Gal(b1-3)GlcNAc
# How it was run: as §1
# [16] = target: Neu5Ac(a2-3)Gal(b1-4)GlcNAc(b1-3)Gal(b1-4)GlcNAc
# How it was run: as §1
# [17] = target: Neu5Ac(a2-3)Gal(b1-4)GlcNAc(b1-3)Gal(b1-4)GlcNAc(b1-3)Gal(b1-4)GlcNAc
# How it was run: as §1
# [18] = target: Neu5Ac(a2-3)Gal(b1-4)GlcNAc(b1-3)Gal(b1-4)[Fuc(a1-3)]GlcNAc
# How it was run: as §1
# [19] = target: Neu5Ac(a2-3)Gal(b1-4)GlcNAc(b1-6)[Gal(b1-3)]GalNAc
# How it was run: as §1
# [20] = target: Neu5Ac(a2-3)Gal(b1-4)GlcNAc6S
# How it was run: as §1
# [21] = target: Neu5Ac(a2-3)Gal(b1-4)[Fuc(a1-3)]GlcNAc
# How it was run: as §1
# [22] = target: Neu5Ac(a2-3)Gal(b1-4)[Fuc(a1-3)]GlcNAc(b1-3)Gal
# How it was run: as §1
# [23] = target: Neu5Ac(a2-3)Gal(b1-4)[Fuc(a1-3)]GlcNAc(b1-3)Gal(b1-4)GlcNAc
# How it was run: as §1
# [24] = target: Neu5Ac(a2-3)Gal(b1-4)[Fuc(a1-3)]GlcNAc(b1-3)Gal(b1-4)[Fuc(a1-3)]GlcNAc(b1-3)Gal(b1-4)[Fuc(a1-3)]GlcNAc
# How it was run: as §1
# [25] = target: Neu5Ac(a2-3)Gal(b1-4)[Fuc(a1-3)]GlcNAc6S
# How it was run: as §1
# [26] = target: Neu5Ac(a2-3)Gal6S(b1-4)GlcNAc
# How it was run: as §1
# [27] = target: Neu5Ac(a2-3)Gal6S(b1-4)[Fuc(a1-3)]GlcNAc
# How it was run: as §1
# Neu5Ac(a2-3)GalNAc = target: Neu5Ac(a2-3)GalNAc
# How it was run: as §1
# [28] = target: Neu5Ac(a2-3)GalNAc(b1-4)GlcNAc
# How it was run: as §1
# [29] = target: Neu5Ac(a2-3)[GalNAc(b1-4)]Gal(b1-4)Glc
# How it was run: as §1
# [30] = target: Neu5Ac(a2-3)[GalNAc(b1-4)]Gal(b1-4)GlcNAc
# How it was run: as §1
# [31] = target: Neu5Ac(a2-3)[Neu5Ac(a2-6)]GalNAc
# How it was run: as §1
# Neu5Ac(a2-6)Gal = target: Neu5Ac(a2-6)Gal
# How it was run: as §1
# Neu5Ac(a2-6)Gal(b1-4)Glc = target: Neu5Ac(a2-6)Gal(b1-4)Glc
# How it was run: as §1
# [32] = target: Neu5Ac(a2-6)Gal(b1-4)GlcNAc
# How it was run: as §1
# [33] = target: Neu5Ac(a2-6)Gal(b1-4)GlcNAc(b1-2)Man(a1-3)[Neu5Ac(a2-6)Gal(b1-4)GlcNAc(b1-2)Man(a1-6)]Man(b1-4)GlcNAc(b1-4)GlcNAc
# How it was run: as §1
# [34] = target: Neu5Ac(a2-6)Gal(b1-4)GlcNAc(b1-3)Gal(b1-4)GlcNAc
# How it was run: as §1
# [35] = target: Neu5Ac(a2-6)Gal(b1-4)GlcNAc(b1-3)Gal(b1-4)[Fuc(a1-3)]GlcNAc(b1-3)Gal(b1-4)[Fuc(a1-3)]GlcNAc
# How it was run: as §1
# [36] = target: Neu5Ac(a2-6)Gal(b1-4)GlcNAc6S
# How it was run: as §1
# Neu5Ac(a2-6)GalNAc = target: Neu5Ac(a2-6)GalNAc
# How it was run: as §1
# [37] = target: Neu5Ac(a2-6)GalNAc(b1-4)GlcNAc
# How it was run: as §1
# Neu5Ac(a2-8)Neu5Ac = target: Neu5Ac(a2-8)Neu5Ac
# How it was run: as §1
# [38] = target: Neu5Ac(a2-8)Neu5Ac(a2-3)Gal(b1-4)Glc
# How it was run: as §1
# [39] = target: Neu5Ac(a2-8)Neu5Ac(a2-3)[GalNAc(b1-4)]Gal(b1-4)Glc
# How it was run: as §1
# [40] = target: Neu5Ac(a2-8)Neu5Ac(a2-8)Neu5Ac
# How it was run: as §1
# [41] = target: Neu5Ac(a2-8)Neu5Ac(a2-8)Neu5Ac(a2-3)Gal(b1-4)Glc
# How it was run: as §1
# [42] = target: Neu5Ac(a2-8)Neu5Ac(a2-8)Neu5Ac(a2-3)[GalNAc(b1-4)]Gal(b1-4)Glc
# How it was run: as §1
# [43] = target: Neu5Ac(a2-8)Neu5Ac(a2-8)Neu5Ac(a2-8)Neu5Ac(a2-3)[GalNAc(b1-4)]Gal(b1-4)Glc
# How it was run: as §1
# [44] = target: Neu5Ac(b2-6)Gal(b1-4)GlcNAc
# How it was run: as §1
# Neu5Ac(b2-6)GalNAc = target: Neu5Ac(b2-6)GalNAc
# How it was run: as §1
# [45] = target: Neu5Ac9Ac(a2-6)Gal(b1-4)GlcNAc
# How it was run: as §1
# [46] = target: Neu5Gc(a2-3)Gal(b1-3)GlcNAc
# How it was run: as §1
# [47] = target: Neu5Gc(a2-3)Gal(b1-3)[Fuc(a1-4)]GlcNAc
# How it was run: as §1
# Neu5Gc(a2-3)Gal(b1-4)Glc = target: Neu5Gc(a2-3)Gal(b1-4)Glc
# How it was run: as §1
# [48] = target: Neu5Gc(a2-3)Gal(b1-4)GlcNAc
# How it was run: as §1
# [49] = target: Neu5Gc(a2-3)Gal(b1-4)[Fuc(a1-3)]GlcNAc
# How it was run: as §1
# [50] = target: Neu5Gc(a2-6)Gal(b1-4)GlcNAc
# How it was run: as §1
# Neu5Gc(a2-6)GalNAc = target: Neu5Gc(a2-6)GalNAc
# How it was run: as §1
binder,measurement,setting,value
B1,glycan array binding signal (z-score),[1],-0.448
same,glycan array binding signal (z-score),Man(b1-4)GlcNAc,-0.473
same,glycan array binding signal (z-score),Neu5Ac(a2-3)Gal,-0.162
same,glycan array binding signal (z-score),[2],-0.299
same,glycan array binding signal (z-score),[3],-0.556
same,glycan array binding signal (z-score),[4],0.015
same,glycan array binding signal (z-score),[5],0.114
same,glycan array binding signal (z-score),[6],0.248
same,glycan array binding signal (z-score),[7],0.218
same,glycan array binding signal (z-score),[8],-0.496
same,glycan array binding signal (z-score),[9],0.594
same,glycan array binding signal (z-score),[10],-0.451
same,glycan array binding signal (z-score),[11],0.125
same,glycan array binding signal (z-score),[12],-0.269
same,glycan array binding signal (z-score),[13],-0.049
same,glycan array binding signal (z-score),Neu5Ac(a2-3)Gal(b1-4)Glc,-0.678
same,glycan array binding signal (z-score),[14],-0.226
same,glycan array binding signal (z-score),[15],-0.487
same,glycan array binding signal (z-score),[16],0.619
same,glycan array binding signal (z-score),[17],-0.446
same,glycan array binding signal (z-score),[18],-0.38
same,glycan array binding signal (z-score),[19],-0.642
same,glycan array binding signal (z-score),[20],-0.267
same,glycan array binding signal (z-score),[21],-0.249
same,glycan array binding signal (z-score),[22],-0.645
same,glycan array binding signal (z-score),[23],0.517
same,glycan array binding signal (z-score),[24],-0.345
same,glycan array binding signal (z-score),[25],0.045
same,glycan array binding signal (z-score),[26],-0.369
same,glycan array binding signal (z-score),[27],-0.101
same,glycan array binding signal (z-score),Neu5Ac(a2-3)GalNAc,-0.424
same,glycan array binding signal (z-score),[28],-0.155
same,glycan array binding signal (z-score),[29],-0.417
same,glycan array binding signal (z-score),[30],-0.468
same,glycan array binding signal (z-score),[31],-0.271
same,glycan array binding signal (z-score),Neu5Ac(a2-6)Gal,-0.915
same,glycan array binding signal (z-score),Neu5Ac(a2-6)Gal(b1-4)Glc,-0.5
same,glycan array binding signal (z-score),[32],-0.424
same,glycan array binding signal (z-score),[33],-0.279
same,glycan array binding signal (z-score),[34],0.039
same,glycan array binding signal (z-score),[35],-0.471
same,glycan array binding signal (z-score),[36],-0.341
same,glycan array binding signal (z-score),Neu5Ac(a2-6)GalNAc,-1.11
same,glycan array binding signal (z-score),[37],0.219
same,glycan array binding signal (z-score),Neu5Ac(a2-8)Neu5Ac,-0.254
same,glycan array binding signal (z-score),[38],-0.385
same,glycan array binding signal (z-score),[39],-0.465
same,glycan array binding signal (z-score),[40],-0.663
same,glycan array binding signal (z-score),[41],-0.227
same,glycan array binding signal (z-score),[42],0.911
same,glycan array binding signal (z-score),[43],0.98
same,glycan array binding signal (z-score),[44],-0.606
same,glycan array binding signal (z-score),Neu5Ac(b2-6)GalNAc,-0.432
same,glycan array binding signal (z-score),[45],-0.102
same,glycan array binding signal (z-score),[46],0.191
same,glycan array binding signal (z-score),[47],-0.343
same,glycan array binding signal (z-score),Neu5Gc(a2-3)Gal(b1-4)Glc,-0.187
same,glycan array binding signal (z-score),[48],-0.328
same,glycan array binding signal (z-score),[49],-0.427
same,glycan array binding signal (z-score),[50],-0.387
same,glycan array binding signal (z-score),Neu5Gc(a2-6)GalNAc,1.03

# Part of the list above, with tabs.
binder	measurement	setting	value
B1	glycan array binding signal (z-score)	[19]	-0.642
same	glycan array binding signal (z-score)	[20]	-0.267
same	glycan array binding signal (z-score)	[21]	-0.249
same	glycan array binding signal (z-score)	[22]	-0.645
same	glycan array binding signal (z-score)	[23]	0.517
